The target in this test is FLAG-tagged TLR2 (toll-like receptor 2) (UniProt Q9QUN7). The test is described as follows: co-IP; podocytes transfected with a FLAG-tagged plasmid; lysate incubated overnight at 4 °C with FLAG-tag magnetic beads (Beyotime kit P2181S; IgG beads as control), washed three times; Western blot for TLR2 and NAT10. Background: A western blot detects proteins with antibodies after separation by electrophoresis.

By UniProt entry, the sequences of proteins in these tests, tags left out. Residues count along the entry.
UniProt Q9QUN7, residues 25-784: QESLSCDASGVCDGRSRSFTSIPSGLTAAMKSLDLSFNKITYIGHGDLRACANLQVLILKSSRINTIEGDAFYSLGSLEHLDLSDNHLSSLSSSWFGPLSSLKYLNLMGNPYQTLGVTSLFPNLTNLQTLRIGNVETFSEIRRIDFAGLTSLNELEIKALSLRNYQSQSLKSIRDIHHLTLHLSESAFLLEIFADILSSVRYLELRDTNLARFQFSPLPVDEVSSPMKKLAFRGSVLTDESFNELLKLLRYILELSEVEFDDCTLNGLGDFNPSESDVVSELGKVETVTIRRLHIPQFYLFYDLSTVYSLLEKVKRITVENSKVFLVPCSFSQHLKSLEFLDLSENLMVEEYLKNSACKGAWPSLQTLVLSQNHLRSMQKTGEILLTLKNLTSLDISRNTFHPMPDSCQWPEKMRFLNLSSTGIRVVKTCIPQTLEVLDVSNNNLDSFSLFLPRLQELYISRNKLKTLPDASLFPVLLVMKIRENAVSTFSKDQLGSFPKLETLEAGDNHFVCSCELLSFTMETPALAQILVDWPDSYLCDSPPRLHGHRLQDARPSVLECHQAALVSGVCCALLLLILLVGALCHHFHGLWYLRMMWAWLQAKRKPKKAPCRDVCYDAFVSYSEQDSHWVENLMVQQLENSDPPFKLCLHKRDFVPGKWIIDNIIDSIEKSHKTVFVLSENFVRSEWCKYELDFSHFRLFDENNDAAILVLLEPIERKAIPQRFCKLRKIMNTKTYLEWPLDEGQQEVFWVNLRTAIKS

These are yes or no findings as the source states them, for the method shown. Binding seen in cells or lysates may run through a third protein. Some results given as binding are weak or reduced against the parent protein; the word gives no strength.

For one molecule, binding results are on record in PMC11923244.

B1: N-acetyltransferase 10 (NAT10), endogenous in podocytes (enzyme, UniProt Q8K224 1-1024)
chain: MNRKKVDNRIRILIENGVAERQRSLFVVVGDRGKDQVVILHHMLSKATVKARPSVLWCYKKELGFSSHRKKRMRQLQKKIKSGTLNLKQDDPFELFVAATNIRYCYYNETHKILGNTFGMCVLQDFEALTPNLLARTVETVEGGGLVVILLRTMNSLKQLYTMTMDVHSRYRTEAHQDVVGRFNERFILSLASCKKCLVIDDQLDILPISSHVASIEALPPQAPDENLSPAALELLELKESLQDTQPVGVLVDCCKTLDQAKAVLKFIEGISEKTLRSTVALTAARGRGKSAALGLAIAGAVAFGYSNIFVTSPSPDNLHTLFEFVFKGFDALQYQEHLDYEIVQSLNPEFNKAVIRVNVFREHRQTIQYIHPADAVKLGQAELVVIDEAAAIPLPLVKSLLGPYLVFMASTINGYEGTGRSLSLKLIQQLRQQSAQSQVSTTAENKTTTTARLASARTLHEVSLQESIRYAPGDAVEKWLNDLLCLDCLNITRIVSGCPLPEACELYYVNRDTLFCYHKASEVFLQRLMALYVASHYKNSPNDLQMLSDAPAHHLFCLLPPVPPTQNALPEVLAVVQVCLEGEISRQSILNSLSRGKKASGDLIPWTVSEQFQDPDFGGLSGGRVVRIAVHPDYQGMGYGSRALQLLQMYYEGKFPCLEEKVLETPQEIRTVSSEAVSLLEEVITPRKDLPPLLLKLNERPAERLDYLGVSYGLTPRLLKFWKRAGFVPVYLRQTPNDLTGEHSCIMLKTLADEDEAEQGAWLAAFWKDFRRRFLALLSYQFSTFSPALSLNIIQNRNVAKSALPALGREHLEALFLPYDLKRLEMYSRNMVDYHLIMDLIPAISRLYFLNQLGDLSLSAAQSALLLGIGLQHKSVDQLEKEIELPSGQLMGLFNRIIRKVVKLFNDVQEKAIEEQMVAVKDVVMEPTMKTLSDDLDEAAKEFQEKHKKEVGKLKDMDLSQYVIRGDDEEWNEVLSKAGQNASIVSLKSDKKRKLETKQEPKQSKKLKKRDNNRKDMKLKRKK
Turning to B1, the binding result is given as “binds”.
